In PubChem BioAssay AID2417 (National Center for Advancing Translational Sciences (NCATS), 2010):
The whole screen tested about 140,000 compounds, of which about 4,300 (3.1%) were called active. Inconclusive means that the source gave no clear call. Such entries were picked first, then a sample of the others.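 Rule for the calls: active = readout at or below -70, meaning at least 70% loss of cells showing the perinucleolar compartment, a nuclear body marking cancer cells; inconclusive = readout between -30 and a set limit; inactive = the rest.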

Assay: High Content Assay for Compounds that inhibit the Assembly of the Perinucleolar Compartment;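 note: plate controls were DMSO wells for no effect and camptothecin positive control wells for full effect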
Details: PC3M PTB-GFP, PNC prevalence imaging, 16 h; at 10 µM; active compounds read low
Outline: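 Compounds are pinned in duplicate onto adhered PC3M cells stably expressing GFP-tagged PTB and incubated 16 h at 37 C. Cells are then fixed, nuclei stained with Hoechst, and PNC-positive cells counted.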
For `COc1ccc(-c2cc(C(=O)NN)[nH]n2)cc1`, the activity change (PNC), negative = inhibition was inactive: 0.961%.
For `O=C1CCSc2ccc(Cl)cc2N1Cc1cccc(Cl)c1`, the activity change (PNC), negative = inhibition was inconclusive: -77%.
In the case of `CN(C)/C=C(\C#N)C(=O)c1cccc(Oc2ccc(Br)cc2)c1`, the activity change (PNC), negative = inhibition is reported as inconclusive: -36.7%.
With `CCCOc1ccc(C(=O)N2CCCC2C(=O)O)cc1` (stereo not given) the activity change (PNC), negative = inhibition was inactive: 36.5%.
With `COc1ccc(CN(C(=O)c2cnccn2)C(C(=O)NC(C)(C)C)c2cc(OC)c(OC)c(OC)c2)cc1` (stereo not given) the activity change (PNC), negative = inhibition was active: -94.9%.
For `O=C(Nc1nnc(CCc2ccccc2)s1)c1ccco1`, the activity change (PNC), negative = inhibition was inconclusive: -55.5%.
In the case of `Cc1nnc(SCC(=O)NC(=O)NCc2ccco2)n1Cc1ccccc1`, the activity change (PNC), negative = inhibition is reported as inactive: 4.45%.
In the case of `CC1CC(C)CN(CCCNC(=O)Cn2ncn3cccc3c2=O)C1` (stereo not given), the activity change (PNC), negative = inhibition is reported as inconclusive: -51.6%.
In the case of `CSCC[C@@H](Nc1nc(-c2ccccc2)nc2c1oc1ccccc12)C(=O)O`, the activity change (PNC), negative = inhibition is reported as inactive: 20%.
In the case of `CCOC(=S)SCC(=O)N1CCc2cc(OC)c(OC)cc2C1C1C(=O)CC(C)(C)CC1=O` (stereo not given), the activity change (PNC), negative = inhibition is reported as inconclusive: -68.5%.
In the case of `COc1ccc(NC(=S)Nc2cc(S(=O)(=O)N3CCCCC3)ccc2OC)cc1`, the activity change (PNC), negative = inhibition is reported as inconclusive: -45.7%.
With `Cc1c(C(=O)NCc2cccnc2)oc2ccc(S(=O)(=O)N3CCCCC3)cc12` the activity change (PNC), negative = inhibition was inconclusive: -33.7%.
For `Cc1cc(NC(=O)CSc2nc3ccccc3[nH]2)no1`, the activity change (PNC), negative = inhibition was inconclusive: -33%.
With `NC(=O)C1CCN(Cc2nc(-c3ccccc3)no2)CC1` the activity change (PNC), negative = inhibition was inconclusive: -45.2%.
For `COc1ccc2c(c1)c(=O)oc1cc(OCC(=O)N3CCCC(C)C3)ccc12` (stereo not given), the activity change (PNC), negative = inhibition was inconclusive: -59.1%.
In the case of `Fc1ccc(CSc2nnc(-c3cccs3)o2)cc1`, the activity change (PNC), negative = inhibition is reported as inconclusive: -50.6%.
With `CCOC(=O)C1CCN(C(=O)Cc2cccs2)CC1` the activity change (PNC), negative = inhibition was inconclusive: -35.7%.
With `O=C(Nc1cccc(S(=O)(=O)N2CCCC2)c1)c1ccc2c(c1)OCO2` the activity change (PNC), negative = inhibition was inconclusive: -45.4%.
With `Cc1c(Cl)cccc1NC(=S)N(CCCN1CCOCC1)Cc1cccs1` the activity change (PNC), negative = inhibition was inconclusive: -50.5%.
With `CNC(=S)N/N=C/c1cc(Br)cc(Br)c1O` the activity change (PNC), negative = inhibition was inconclusive: -31.1%.
With `COc1ccc(NS(=O)(=O)c2ccc3nc(COc4cccc5ccccc45)[nH]c3c2)cc1` the activity change (PNC), negative = inhibition was inactive: -11.6%.
For `O=C1C2CCCN2C(=O)N1CCCCN1CCN(c2ccccc2)CC1` (stereo not given), the activity change (PNC), negative = inhibition was inconclusive: -44.2%.
With `O=C(CN1CCCCC1)Nc1ccccc1-c1ccccc1` the activity change (PNC), negative = inhibition was inactive: 18.9%.
In the case of `CCOC(=O)C1=C(C)NC(SCC(N)=O)=C(C#N)C1c1ccncc1` (stereo not given), the activity change (PNC), negative = inhibition is reported as inconclusive: -40.3%.
For `CC(=O)OC[C@H]1O[C@@H](Sc2cccc3cccnc23)[C@H](OC(C)=O)[C@@H](OC(C)=O)[C@H]1OC(C)=O`, the activity change (PNC), negative = inhibition was inactive: -22.5%.
In the case of `COC(=O)c1cccc(Cn2c(Cl)c(/C=N/NC(=O)c3ccccc3Cl)sc2=O)c1`, the activity change (PNC), negative = inhibition is reported as inactive: 7.71%.
With `COc1ccc(/C=N/N=C2/NC(=O)CC(C(=O)O)S2)cc1` (stereo not given) the activity change (PNC), negative = inhibition was inactive: -11.4%.
With `Cc1ccc2c(c1)c1c(n2CC2COC(C)(C)O2)C(=O)CCC1` (stereo not given) the activity change (PNC), negative = inhibition was inconclusive: -62.9%.
For `COc1ccc(N(CCCN2C(=O)c3cccc4cccc(c34)C2=O)C(=O)c2cccc(OC)c2)cc1`, the activity change (PNC), negative = inhibition was inconclusive: -60.2%.
For `Cc1nc2cc(NC(=O)Nc3ccc(N4CCOCC4)cc3)ccc2n1C`, the activity change (PNC), negative = inhibition was inconclusive: -72.7%.
For `CCOC(=O)c1sc(NC(=O)/C=C/c2cnn(C)c2C)c(C(=O)OC(C)C)c1C`, the activity change (PNC), negative = inhibition was inconclusive: -41.3%.
With `N#Cc1c(N)nc2c3c(sc(=N)c2c1N)NC(=O)CC3c1c(F)cccc1Cl` (stereo not given) the activity change (PNC), negative = inhibition was inconclusive: -54.8%.
In the case of `CCN(CCO)C(=S)Nc1cc(C(=O)OC)ccc1C(=O)OC`, the activity change (PNC), negative = inhibition is reported as inconclusive: -39.7%.
For `Cn1ccnc1SCC(=O)Nc1cccc(O)c1`, the activity change (PNC), negative = inhibition was inconclusive: -60.6%.
In the case of `Cc1cccc(NC(=O)c2cc(NC(=O)CCCC(=O)O)ccc2Cl)n1`, the activity change (PNC), negative = inhibition is reported as inconclusive: -33.4%.
In the case of `COc1ccc2c(c1)CCc1c(C(=O)N3CC4(C)CC3CC(C)(C)C4)noc1-2` (stereo not given), the activity change (PNC), negative = inhibition is reported as inconclusive: -48.1%.
In the case of `O=C(CN1C(=O)C2(OCCO2)c2ccccc21)c1ccc(Br)cc1`, the activity change (PNC), negative = inhibition is reported as inconclusive: -53.2%.
With `Cc1onc(-c2ccccc2)c1C(=O)NNC(=S)NC(=O)/C=C/c1cccs1` the activity change (PNC), negative = inhibition was inactive: -29.6%.
For `O=C(Cn1nc(-c2ccc(Cl)cc2)c2ccccc2c1=O)NCC1CCCO1` (stereo not given), the activity change (PNC), negative = inhibition was inactive: 5.46%.
In the case of `c1ccc(CN2CN=C(Nc3nc4ccccc4s3)NC2)cc1`, the activity change (PNC), negative = inhibition is reported as inconclusive: -59.9%.
In the case of `CCOC(=O)C1=C(N)Oc2c(oc(CO)cc2=O)C1c1c(F)cccc1Cl` (stereo not given), the activity change (PNC), negative = inhibition is reported as inconclusive: -35.8%.
With `CCOC(=O)c1[nH]c2ccccc2c1NC(=O)c1ccco1` the activity change (PNC), negative = inhibition was inconclusive: -57.4%.
In the case of `Cc1ccc(C(C)C)c(OCc2ccc(C(=O)N/N=C/c3ccc(O)cc3O)cc2)c1`, the activity change (PNC), negative = inhibition is reported as active: -89.5%.
With `Nc1nc2c(ncn2COC(CO)CO)c(=O)[nH]1` the activity change (PNC), negative = inhibition was inconclusive: -77.2%.
With `Cn1nc(CC(=O)NCc2ccc(C(F)(F)F)cc2)c2ccccc2c1=O` the activity change (PNC), negative = inhibition was inconclusive: -56.1%.
